Experimental findings from the supplement of paper PMC10849652 are described below.

Chains of the proteins cited; added tags and fusions are not shown. Lines headed by an entry give the natural chain unless they say otherwise; changes in a name come on top.
UniProt Q8TD22: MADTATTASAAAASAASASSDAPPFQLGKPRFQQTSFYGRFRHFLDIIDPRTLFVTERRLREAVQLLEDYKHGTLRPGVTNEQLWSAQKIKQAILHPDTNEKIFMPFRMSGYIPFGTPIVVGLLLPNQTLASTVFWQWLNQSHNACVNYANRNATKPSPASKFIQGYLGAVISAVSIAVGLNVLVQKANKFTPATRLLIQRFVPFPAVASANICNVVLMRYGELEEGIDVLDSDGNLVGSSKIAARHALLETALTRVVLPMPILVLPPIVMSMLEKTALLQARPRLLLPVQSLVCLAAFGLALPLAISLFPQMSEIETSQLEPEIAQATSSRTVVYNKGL
UniProt Q86VZ5: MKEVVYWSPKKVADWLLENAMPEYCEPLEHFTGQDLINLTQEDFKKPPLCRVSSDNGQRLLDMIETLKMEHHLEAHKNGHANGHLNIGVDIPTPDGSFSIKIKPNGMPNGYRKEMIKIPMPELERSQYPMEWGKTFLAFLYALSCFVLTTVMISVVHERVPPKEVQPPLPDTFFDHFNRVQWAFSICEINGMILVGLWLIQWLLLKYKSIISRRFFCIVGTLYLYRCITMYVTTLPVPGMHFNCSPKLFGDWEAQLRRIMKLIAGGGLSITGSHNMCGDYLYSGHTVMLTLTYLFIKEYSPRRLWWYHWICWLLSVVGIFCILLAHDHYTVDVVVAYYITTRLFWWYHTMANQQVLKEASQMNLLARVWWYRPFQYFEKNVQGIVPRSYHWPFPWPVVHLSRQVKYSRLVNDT
UniProt O75182: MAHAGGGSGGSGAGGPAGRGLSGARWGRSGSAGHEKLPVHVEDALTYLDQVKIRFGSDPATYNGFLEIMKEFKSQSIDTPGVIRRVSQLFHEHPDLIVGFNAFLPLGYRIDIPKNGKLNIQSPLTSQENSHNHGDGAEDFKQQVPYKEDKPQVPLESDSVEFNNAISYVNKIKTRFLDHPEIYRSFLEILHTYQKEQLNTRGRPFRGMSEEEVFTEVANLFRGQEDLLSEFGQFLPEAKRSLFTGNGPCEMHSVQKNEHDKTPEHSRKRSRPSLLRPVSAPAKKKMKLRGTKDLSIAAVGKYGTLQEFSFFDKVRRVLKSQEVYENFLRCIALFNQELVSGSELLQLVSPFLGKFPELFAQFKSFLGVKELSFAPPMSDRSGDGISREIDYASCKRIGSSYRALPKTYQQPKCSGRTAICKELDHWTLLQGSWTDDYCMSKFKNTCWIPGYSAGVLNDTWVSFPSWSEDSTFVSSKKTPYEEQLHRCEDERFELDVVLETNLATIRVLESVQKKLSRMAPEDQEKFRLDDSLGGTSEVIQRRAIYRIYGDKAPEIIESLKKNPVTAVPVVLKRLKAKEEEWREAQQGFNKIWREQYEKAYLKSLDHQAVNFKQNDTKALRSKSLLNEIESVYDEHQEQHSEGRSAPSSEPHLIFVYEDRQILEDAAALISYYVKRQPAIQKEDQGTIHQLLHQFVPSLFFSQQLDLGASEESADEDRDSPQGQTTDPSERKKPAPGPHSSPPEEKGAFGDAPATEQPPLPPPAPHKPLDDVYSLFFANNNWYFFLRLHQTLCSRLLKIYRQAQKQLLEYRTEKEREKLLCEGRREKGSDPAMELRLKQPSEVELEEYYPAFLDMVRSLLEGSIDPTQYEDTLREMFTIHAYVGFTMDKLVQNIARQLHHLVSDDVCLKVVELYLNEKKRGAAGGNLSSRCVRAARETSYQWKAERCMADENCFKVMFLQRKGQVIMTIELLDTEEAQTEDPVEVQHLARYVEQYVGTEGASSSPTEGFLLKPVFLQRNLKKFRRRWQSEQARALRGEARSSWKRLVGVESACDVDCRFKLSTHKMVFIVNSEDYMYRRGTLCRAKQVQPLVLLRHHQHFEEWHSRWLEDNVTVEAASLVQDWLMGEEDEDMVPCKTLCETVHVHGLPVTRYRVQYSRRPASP
UniProt Q2VWA4: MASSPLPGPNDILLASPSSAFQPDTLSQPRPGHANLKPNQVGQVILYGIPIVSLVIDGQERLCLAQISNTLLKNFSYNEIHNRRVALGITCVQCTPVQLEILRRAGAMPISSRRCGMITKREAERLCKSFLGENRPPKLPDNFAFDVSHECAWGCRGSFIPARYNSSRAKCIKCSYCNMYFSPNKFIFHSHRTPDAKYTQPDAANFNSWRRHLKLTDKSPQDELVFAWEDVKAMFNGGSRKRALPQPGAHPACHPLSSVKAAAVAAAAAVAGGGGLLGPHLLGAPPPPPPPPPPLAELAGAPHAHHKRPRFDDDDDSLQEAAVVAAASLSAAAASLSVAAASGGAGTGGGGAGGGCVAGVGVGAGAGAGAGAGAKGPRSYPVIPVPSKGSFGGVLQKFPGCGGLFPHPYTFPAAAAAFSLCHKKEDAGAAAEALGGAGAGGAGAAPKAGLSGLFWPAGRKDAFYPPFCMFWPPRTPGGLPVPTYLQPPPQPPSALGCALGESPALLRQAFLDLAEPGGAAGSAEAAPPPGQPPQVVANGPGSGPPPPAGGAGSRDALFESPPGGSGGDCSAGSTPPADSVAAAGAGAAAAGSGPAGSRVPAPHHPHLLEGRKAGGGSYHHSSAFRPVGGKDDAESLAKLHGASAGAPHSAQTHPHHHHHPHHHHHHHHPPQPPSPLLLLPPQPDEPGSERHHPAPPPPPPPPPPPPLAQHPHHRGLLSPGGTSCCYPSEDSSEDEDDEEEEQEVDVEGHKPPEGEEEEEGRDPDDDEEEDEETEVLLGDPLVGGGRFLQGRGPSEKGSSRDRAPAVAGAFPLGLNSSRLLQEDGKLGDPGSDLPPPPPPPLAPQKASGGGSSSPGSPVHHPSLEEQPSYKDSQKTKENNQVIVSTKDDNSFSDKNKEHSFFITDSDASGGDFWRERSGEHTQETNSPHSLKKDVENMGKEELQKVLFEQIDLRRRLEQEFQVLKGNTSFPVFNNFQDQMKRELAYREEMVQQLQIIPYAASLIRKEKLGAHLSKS
UniProt Q6IA17: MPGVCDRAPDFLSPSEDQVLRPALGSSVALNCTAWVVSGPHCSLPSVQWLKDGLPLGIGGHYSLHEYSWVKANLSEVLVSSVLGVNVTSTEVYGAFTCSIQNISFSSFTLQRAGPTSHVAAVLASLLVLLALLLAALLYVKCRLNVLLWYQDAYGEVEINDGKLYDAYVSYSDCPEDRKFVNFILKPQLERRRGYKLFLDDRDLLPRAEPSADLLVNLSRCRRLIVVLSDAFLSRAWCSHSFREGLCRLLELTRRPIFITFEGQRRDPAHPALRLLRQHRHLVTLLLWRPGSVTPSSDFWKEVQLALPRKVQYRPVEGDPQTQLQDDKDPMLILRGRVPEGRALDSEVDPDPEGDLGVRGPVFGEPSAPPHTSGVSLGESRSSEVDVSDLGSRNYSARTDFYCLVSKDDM
UniProt Q13309, whole entry, looked up: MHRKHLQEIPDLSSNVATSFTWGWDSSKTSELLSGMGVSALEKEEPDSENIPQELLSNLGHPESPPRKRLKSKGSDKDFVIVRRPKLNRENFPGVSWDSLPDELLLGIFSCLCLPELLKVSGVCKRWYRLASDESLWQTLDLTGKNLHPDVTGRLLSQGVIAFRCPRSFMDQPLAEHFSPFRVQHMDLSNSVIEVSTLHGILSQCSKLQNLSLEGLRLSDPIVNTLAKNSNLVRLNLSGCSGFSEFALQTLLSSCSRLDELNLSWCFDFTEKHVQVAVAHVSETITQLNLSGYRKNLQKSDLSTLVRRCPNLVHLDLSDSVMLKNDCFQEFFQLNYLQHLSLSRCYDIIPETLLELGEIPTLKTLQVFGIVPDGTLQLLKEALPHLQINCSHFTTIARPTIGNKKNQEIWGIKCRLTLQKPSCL
UniProt Q9UQQ2: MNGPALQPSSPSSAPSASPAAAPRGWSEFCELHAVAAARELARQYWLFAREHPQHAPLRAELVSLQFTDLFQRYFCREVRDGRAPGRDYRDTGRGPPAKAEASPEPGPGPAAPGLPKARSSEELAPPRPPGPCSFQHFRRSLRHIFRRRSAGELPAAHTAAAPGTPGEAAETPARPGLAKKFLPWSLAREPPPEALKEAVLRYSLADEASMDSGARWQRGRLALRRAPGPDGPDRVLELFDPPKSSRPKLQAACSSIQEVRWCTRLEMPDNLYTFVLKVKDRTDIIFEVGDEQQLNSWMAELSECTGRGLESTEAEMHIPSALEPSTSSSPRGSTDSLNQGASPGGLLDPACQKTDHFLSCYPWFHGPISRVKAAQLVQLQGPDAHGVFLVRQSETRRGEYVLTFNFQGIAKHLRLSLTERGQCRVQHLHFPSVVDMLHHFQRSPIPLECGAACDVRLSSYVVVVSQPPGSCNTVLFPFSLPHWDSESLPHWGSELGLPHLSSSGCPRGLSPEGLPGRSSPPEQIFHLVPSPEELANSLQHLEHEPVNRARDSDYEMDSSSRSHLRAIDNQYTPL
UniProt Q9NP50: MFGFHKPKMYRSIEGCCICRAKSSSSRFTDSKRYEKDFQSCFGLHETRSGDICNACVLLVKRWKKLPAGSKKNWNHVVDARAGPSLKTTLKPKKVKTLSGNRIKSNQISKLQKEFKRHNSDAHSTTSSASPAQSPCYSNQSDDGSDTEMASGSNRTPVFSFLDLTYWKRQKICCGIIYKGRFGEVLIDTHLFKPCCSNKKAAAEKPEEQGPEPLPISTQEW
UniProt Q96EP9: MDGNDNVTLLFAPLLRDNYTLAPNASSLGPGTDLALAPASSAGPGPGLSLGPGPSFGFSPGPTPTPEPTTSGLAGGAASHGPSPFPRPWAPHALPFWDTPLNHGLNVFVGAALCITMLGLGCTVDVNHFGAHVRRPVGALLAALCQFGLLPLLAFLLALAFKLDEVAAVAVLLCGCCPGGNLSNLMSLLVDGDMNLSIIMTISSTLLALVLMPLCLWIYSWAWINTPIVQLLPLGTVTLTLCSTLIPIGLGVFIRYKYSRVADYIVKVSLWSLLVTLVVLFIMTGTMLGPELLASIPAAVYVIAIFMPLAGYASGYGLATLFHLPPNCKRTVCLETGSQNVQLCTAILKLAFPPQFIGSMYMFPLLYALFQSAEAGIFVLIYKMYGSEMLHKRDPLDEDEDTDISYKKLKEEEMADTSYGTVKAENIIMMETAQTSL
UniProt Q8TBK2: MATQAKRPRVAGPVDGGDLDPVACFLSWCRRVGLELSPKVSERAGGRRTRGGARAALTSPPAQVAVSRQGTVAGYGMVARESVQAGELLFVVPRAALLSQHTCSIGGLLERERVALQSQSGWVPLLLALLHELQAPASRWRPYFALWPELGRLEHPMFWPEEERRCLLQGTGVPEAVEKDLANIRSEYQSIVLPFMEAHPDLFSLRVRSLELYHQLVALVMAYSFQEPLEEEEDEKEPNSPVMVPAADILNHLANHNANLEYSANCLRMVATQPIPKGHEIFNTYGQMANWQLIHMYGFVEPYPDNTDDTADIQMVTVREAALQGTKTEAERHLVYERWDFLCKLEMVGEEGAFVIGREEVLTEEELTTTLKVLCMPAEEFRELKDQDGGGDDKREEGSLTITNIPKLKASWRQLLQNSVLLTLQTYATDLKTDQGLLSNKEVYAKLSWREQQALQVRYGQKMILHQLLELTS
UniProt Q8WV19: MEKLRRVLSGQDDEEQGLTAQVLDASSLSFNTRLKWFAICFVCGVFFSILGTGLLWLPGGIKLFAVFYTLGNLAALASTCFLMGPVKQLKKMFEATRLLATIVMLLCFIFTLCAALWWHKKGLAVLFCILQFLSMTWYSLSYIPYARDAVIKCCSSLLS
UniProt Q587I9: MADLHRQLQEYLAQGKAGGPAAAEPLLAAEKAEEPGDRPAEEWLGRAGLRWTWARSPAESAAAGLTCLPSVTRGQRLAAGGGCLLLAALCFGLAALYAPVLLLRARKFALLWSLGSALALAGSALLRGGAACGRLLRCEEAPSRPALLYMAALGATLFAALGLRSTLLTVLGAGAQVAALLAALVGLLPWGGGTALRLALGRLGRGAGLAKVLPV

This is one part of the list.

Compound in one assay: CC1=C2C(=CC=C1)N=C(N(C2=O)C3=CC=CC=C3C)CN4C=NC5=C(N=CN=C54)N
Nature of the assay: log2 fold change, soluble protein after heating vs DMSO (PISA); higher = thermal stabilisation; K562 lysate, 10 uM; active = over 0.2 and 3.5 SD of the protein, either way, in both replicates (recomputed). The gist of the method: (§1)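 Values give the log-two fold change in thermal stability against solvent controls, from duplicates. Crude K562 extract at 1 mg/mL protein, made by dounce homogenisation in PBS pH 7.4 with 1 mM MgCl2, was treated with 10 μM compound for 30 min. After 3 min heating across 48°C-58°C, aliquots were pooled, adjusted to 0.5% NP-40 at 4°C and centrifuged at 21,000xg for 90 min. The supernatant was measured by TMTpro 16plex LC-MS/MS with channel sums equalised.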
With SFXN5 (UniProt Q8TD22), the log2 fold change is inactive: 0.117. Consider SGMS1 (UniProt Q86VZ5), for which the log2 fold change was inactive: 0.049.

On to SKIL (UniProt P12757), for which the log2 fold change is inactive: 0.156.

On to SF1 (UniProt H7C0N4), for which the log2 fold change is inactive: -0.07. Same read-out and setting: under SIN3B (UniProt O75182) stands inactive: -0.129; under SLC10A3 (UniProt P09131), inactive: 0.055. On the same count and under the same terms, under SETX isoform 4 (UniProt Q7Z333) stands inactive: 0.046; under SKOR2 (UniProt Q2VWA4), inactive: 0.083. SIGIRR (UniProt Q6IA17): the log2 fold change is inactive: 0.183.

For SKP2 (UniProt Q13309), the log2 fold change is inactive: -0.015.

With SGK3 (UniProt Q96BR1), the log2 fold change is inactive: 0.056. In the case of SH2D1B (UniProt O14796), the log2 fold change is inactive: -0.029. Turning to SH2B3 (UniProt Q9UQQ2), the log2 fold change was inactive: 0.05. Still for that read-out and setting: under SLC18B1 (UniProt Q6NT16) stands inactive: 0.165; under SKIV2L (UniProt Q15477), inactive: -0.033. Regarding SIRT3 (UniProt Q9NTG7), the log2 fold change was inactive: -0.128.

Turning to SHARPIN (UniProt Q9H0F6), the log2 fold change was inactive: 0.078. Same read-out and setting: next, SINHCAF (UniProt Q9NP50): inactive: 0.885.

Compound in another assay: Cc1sc2c(c1C)C(c1ccc(Cl)cc1)=N[C@@H](CC(=O)OC(C)(C)C)c1nnc(C)n1-2
Described as above. The gist of the method: as §1
For SLC10A4 (UniProt Q96EP9), the log2 fold change is inactive: -0.043. As to SFXN5 (UniProt Q8TD22), the log2 fold change was inactive: -0.033. As to SGMS1 (UniProt Q86VZ5), the log2 fold change was inactive: 0.004.

Regarding SETX isoform 4 (UniProt Q7Z333), the log2 fold change was inactive: -0.033. The same measure, in the same setting: under SHB (UniProt Q15464) stands inactive: 0.033; under SH2B1 (UniProt Q9NRF2), inactive: -0.007.

Take SIX5 (UniProt Q8N196): the log2 fold change is inactive: -0.037.

Take SKOR2 (UniProt Q2VWA4): the log2 fold change is inactive: -0.157.

As for SHLD1 (UniProt Q8IYI0), the log2 fold change is inactive: 0.174.

Consider SET isoform 3 (UniProt Q01105), for which the log2 fold change was inactive: -0.05. SKP2 (UniProt Q13309): the log2 fold change is inactive: -0.003. On to SERPINA1 (UniProt P01009), for which the log2 fold change was inactive: -0.045.

With SLC12A6 isoform 2 (UniProt Q9UHW9), the log2 fold change is inactive: -0.179. On to SETD6 (UniProt Q8TBK2), for which the log2 fold change was inactive: 0.097.

Regarding SGK3 (UniProt Q96BR1), the log2 fold change is inactive: -0.184. On to SH2D1B (UniProt O14796), for which the log2 fold change is inactive: 0.017. For the target SFT2D1 (UniProt Q8WV19), the log2 fold change is inactive: 0.033. Consider SIRT3 (UniProt Q9NTG7), for which the log2 fold change was inactive: 0.069. Regarding SHARPIN (UniProt Q9H0F6), the log2 fold change was inactive: -0.093. For the target SFT2D3 (UniProt Q587I9), the log2 fold change was inactive: -0.204. Still for that read-out and setting: under SINHCAF (UniProt Q9NP50) stands inactive: 0.13; under SIK3 (UniProt Q9Y2K2), inactive: -0.196.
